# Hit rate of the full screen: of about 130,000 compounds, about 1,000 (0.77%) were called active. Inconclusive results, whose numbers are uncertain, are shown with a selection of clear calls.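 The calls were made as follows: active = activation at 2 µM above a set limit, confirmed on inspection of the cell images; inconclusive = above the set limit but not confirmed on image inspection; inactive = the rest.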
# Test: activators of insulin promoter-driven GFP, primary screen, imaging, TRM-6 cells (human fetal islet line), eGFP reporter, cell count (AID 1296;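 also: share of cells whose green reporter signal exceeds an intensity cutoff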)
# Settings: at 2 µM, stronger effect = higher value, plate-scaled: unstimulated 0, stimulated control 100
# Outline: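 Material: TRM-6 insulin promoter–eGFP reporter cells. Buffer or medium: Low-glucose (5.5 mM) medium with tamoxifen. Probe or stimulus: tamoxifen at 0.75 µM added at seeding for reporter induction. Times: tamoxifen pre-incubation 15 h overnight, then compound exposure 48 h at 37 °C. Detection: high-content imaging of fixed cells with Hoechst nuclear stain.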
row,Compound,activation
1,COc1ccc(OC)c(N(CC(N)=O)S(=O)(=O)c2ccc(OC)c(OC)c2)c1,inactive: -3.33%
2,CCc1ccc(N2C(=O)CC(N3CCC(C(=O)OC)CC3)C2=O)cc1 (centres undefined),active: 543%
3,Clc1ccc(Nc2ncnc3ccc(Br)cc23)cc1,inconclusive: 219%
4,COc1cccc(C(=O)NN/C(C)=C/C(=O)C(F)(F)C(F)(F)C(F)(F)F)c1,inactive: 0%
5,COC(=O)c1c(C)[nH]c(C(=O)CC#N)c1C,inconclusive: 314%
6,O=C(Nc1ccccc1C(=O)N1CCCC1)c1cccc(S(=O)(=O)N2CCCCC2)c1,inconclusive: 87%
7,O=C1OCc2cc(NS(=O)(=O)c3cccs3)ccc21,inconclusive: 414%
8,O=C(NCc1ccco1)c1cnn2c(C(F)(F)F)cc(-c3ccco3)nc12,inconclusive: 96.4%
9,CC(C)c1nc(C(=O)N2CCCC(CCC(=O)N(C)CCc3ccccn3)C2)cs1 (centres undefined),inconclusive: 170%
10,CCN(CC)S(=O)(=O)c1ccc(OC)c(NC(=O)CSc2ccccc2)c1,inconclusive: 220%
11,O=C(C1CCCCC1)N(CCN1CCCC1)c1nc2ccccc2s1,inconclusive: 167%
12,CC(=O)c1cc(OC(=O)c2ccncc2)ccc1OC(=O)c1ccncc1,inconclusive: 438%
13,COc1cc(S(=O)(=O)N2CCN(C(=O)c3ccccc3F)CC2)c(OC)cc1NC(C)=O,inactive: -3.23%
14,NC(=O)C1CC(=O)N(c2ccc(OCc3c(Cl)cccc3Cl)cc2)C1 (centres undefined),inactive: 0%
15,CCC(C)[C@H](NC(=O)OC(C)(C)C)C(=O)N/N=C/c1cccc2nccnc12 (some centres undefined),inconclusive: 427%
16,CNc1nc(SC)nc2ccsc12,inactive: 3.33%
17,CC(Oc1ccccc1)C(=O)Nc1ccc(C(N)=O)cc1 (centres undefined),active: 174%
18,CC(=O)Nc1ccc(C(=O)OCC(=O)Nc2ccccc2F)cc1,inactive: 0%
19,CCCc1cc(Nc2c(C)n(C)n(-c3ccccc3)c2=O)n2c(nc3ccccc32)c1C#N,inconclusive: 507%
20,CNC(=O)CN(c1cc(OCCOC)c(Cl)cc1Cl)S(=O)(=O)c1ccc(OC)cc1,inactive: 136%

# As a short view, part of the list above.
row,Compound,activation
11,O=C(C1CCCCC1)N(CCN1CCCC1)c1nc2ccccc2s1,inconclusive: 167%
12,CC(=O)c1cc(OC(=O)c2ccncc2)ccc1OC(=O)c1ccncc1,inconclusive: 438%

# Continuation:

row,Compound,activation
1,O=C(CSc1ccc(-c2cccc([N+](=O)[O-])c2)nn1)NCc1ccccc1,active: 266%
2,COc1ccc(-c2nc(C#N)c(NCc3ccccc3Cl)o2)cc1,inconclusive: 564%
3,Cc1nn(C(CC(=O)O)C(=O)O)c(C)c1Br (centres undefined),inconclusive: 456%
4,CC(C)C(c1nnnn1Cc1ccc(F)cc1)N1CCN(Cc2ccc3c(c2)OCO3)CC1 (centres undefined),active: 121%
5,CCNc1ccc(Br)cc(C(=O)/C=C/c2ccccc2Cl)c1=O,active: 800%
6,N#C/C(=C/c1ccc(-c2ccc(S(N)(=O)=O)cc2)o1)c1nc2ccccc2s1,active: 257%
7,N#C/C(=C/c1ccc(-c2ccccc2)o1)c1nc(-c2cccs2)cs1,active: 456%
8,COc1cccc(/C(O)=C2/C(=O)C(=O)N(CCCN3CCOCC3)C2c2ccncc2)c1 (centres undefined),inconclusive: 192%
9,CC(C)(C)n1nc2c(c1NC(=O)Cc1cccc3ccccc13)CS(=O)(=O)C2,inconclusive: 178%
10,CCOC(=O)c1c(NC(=O)CSC(=S)N2CCOCC2)sc(C)c1C,inactive: -3.7%
11,Cc1nn(CC(=O)N2CCOCC2)c(=O)c2ccccc12,inconclusive: 139%
12,Cc1ccc(NC(=O)Nc2ccccc2)c(Br)c1,inconclusive: 202%
13,Cc1ccc(C(=O)CCC(=O)CCC(=O)O)cc1,inconclusive: 444%
14,Cc1cc(C)nc(N(C#N)S(=O)(=O)c2ccccc2Cl)n1,inconclusive: 400%
15,O=C(CCCCCN1C(=O)CCC1=O)Nc1ccc2c(c1)OCO2,active: 475%
16,CC(C)(C)c1ccc(Cn2nc(CC(=O)O)c3ccccc3c2=O)cc1,active: 272%
17,CCOC(=O)c1cc2sccc2n1CC(=O)C(C)(C)C,active: 213%
18,CCOC(=O)C(C)(C)Sc1ncnc2nc[nH]c12,inconclusive: 600%
19,O=C1C(Cl)=C(NCCN2CCCCC2)C(=O)c2ccccc21,inconclusive: 809% [cytotoxic]
20,CCn1c(=O)cc(SCC(=O)N(C)Cc2ccccc2)c2ccccc21,inconclusive: 542%

row,Compound,activation
1,Cn1cc(/C=N/n2cnc3scc(-c4ccccc4)c3c2=O)c2ccccc21,inconclusive: 354% [cytotoxic]
2,COC(=O)c1cn(CC(=O)NC2CCCCCC2)c2ccccc12,inconclusive: 431%
3,Cc1ccc(S(=O)(=O)N2CCCC2C(=O)OCc2ccco2)cc1 (centres undefined),active: 579%
4,C=CCn1c(O)c(C(CC)=NCc2cccnc2)c(=O)[nH]c1=O,inactive: -7.69%
5,FC(F)(F)COc1nc(OCC(F)(F)F)nc(N2CCN(c3ccccc3)CC2)n1,inactive: 0%
6,COc1cc(/C=C(\C#N)c2nc3ccccc3[nH]2)cc(Br)c1OCc1ccc(F)cc1,inactive: -6.67%
7,Cc1no[n+]([O-])c1COc1ccc(/C=N/n2nnnc2N)cc1,inactive: 0%
8,CCCCN1C(=O)C(CC(=O)NCC)SC1=Nc1ccccc1 (centres undefined),active: 450%
9,O=Cc1cn(CC(=O)Nc2ccc3c(c2)OCO3)c2ccccc12,inconclusive: 150%
10,O=C(Nc1ccccc1)N(Cc1ccccc1)Cc1ccccc1,inconclusive: 97.1%
11,COc1cc(/C=N/NC(=O)c2cccc([N+](=O)[O-])c2)ccc1OCc1ccccc1,inactive: 44.7%
12,CN1CCN(/N=C/c2ccc(-c3ccc([N+](=O)[O-])cc3Cl)o2)CC1,inconclusive: 316%
13,CC(=O)c1cccc(NC(=O)CSc2nnc(-c3cccnc3)o2)c1,inconclusive: 469%
14,CCCC(=O)Nc1ccc(N2CCN(C(=O)c3ccccc3C)CC2)cc1,active: 444%
15,CCCCOc1ccc(-c2nnn(CC(=O)NCCc3c[nH]c4ccccc34)n2)cc1,inconclusive: 175%
16,Fc1ccc(CSc2nncn2NCc2ccccc2)cc1,active: 428%
17,CN1C(=O)NC(c2ccc(O)cc2)C(C(=O)c2cccs2)C1(O)C(F)(F)F (centres undefined),inconclusive: 133%
18,CN(Cc1ccccc1)S(=O)(=O)c1cccc(C(=O)O)c1,inactive: 0%
19,COCC(=O)Nc1ccccc1C(=O)NC(C)C,inconclusive: 83.6%

# Reference: PubChem BioAssay AID1296 (Columbia University Molecular Screening Center, 2008)
